Library compounds against nucleic acid targets

Source: the ROBIN nucleic acid binder screens (doi:10.1002/anie.202211358).

Targets, with sequences 5′ to 3′:
SAM-II: SAM-II riboswitch RNA pseudoknot, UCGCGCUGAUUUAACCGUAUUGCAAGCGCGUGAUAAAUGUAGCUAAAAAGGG. Hit rate about 1% of about 21,000 compounds.
TPP: TPP riboswitch RNA three-way junction, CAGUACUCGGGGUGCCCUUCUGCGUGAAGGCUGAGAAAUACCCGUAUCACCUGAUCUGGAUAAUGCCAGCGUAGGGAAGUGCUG. Hit rate about 0.7% of about 24,000 compounds.
PreQ1: PreQ1 riboswitch RNA pseudoknot, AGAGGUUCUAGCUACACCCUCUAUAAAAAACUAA. From B. subtilis. Hit rate about 0.7% of about 24,000 compounds.

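The test is a small-molecule microarray: each compound is printed twice on a reactive slide, and binding shows as fluorescence of the labelled oligonucleotide after washing. The data file lists only calls. An earlier report of the laboratory on the PreQ1, TPP and SAM-II riboswitches (doi:10.1038/s41467-019-09493-3) used 1 µM RNA for 2 h and required a mean Z-score above 3 (spot signal-to-noise against the whole library), a score well above that on a control array, and duplicate spots agreeing (coefficient of variation under 100); it then also set aside compounds that hit other targets, which this list keeps. The cut-offs behind this list may differ. A missing hit is not proof of no binding, and a hit is not a measured affinity.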
Key: hit = hit, none = tested without a hit.
The compounds are a random part of those screened.
A dash means that no call is listed here.

| SMILES | SAM-II | TPP | PreQ1 |
|---|---|---|---|
| `Cc1cnccc1Cn1ccnc1-c1cn(C2CCNCC2)nn1` | none | none | none |
| `Cc1ccccc1N1CC(c2nc3ccccc3n2CC(O)COc2ccccc2)CC1=O` (configuration not stated) | - | none | none |
| `Cc1nnc2c3ccccc3nc(Nc3ccccc3O)n12` | - | none | none |
| `Nc1cc(C(F)(F)F)ccc1N1CCN(C(=O)c2ccccc2)CC1` | none | none | none |
| `CCc1nnc2c(Nc3ccc(C(=O)O)cc3)nc3ccccc3n12` | - | none | none |
| `COc1cc(-c2nc3ncccn3c2Nc2cccc(C(F)(F)F)c2)ccc1O` | none | none | none |
| `Cl.O=C(CCN1CCN(CCO)CC1)Nc1ccc2c(c1)CCC2` | none | none | none |
| `COc1ccc(-c2nn3c(NCc4cccnc4)cc(C)nc3c2C)cc1OC` | - | none | none |
| `Cc1ccccc1Cn1c(NCCO)nc2c1c(=O)n(C)c(=O)n2C` | none | none | none |
| `O=C(c1cc(CN2CCC(O)CC2)on1)N1CCc2sccc2C1` | none | none | none |
| `Brc1ccc(Nc2nc(-c3cccnc3)cs2)cc1` | none | none | none |
| `CCCN1CCN(c2ncc(F)c(NC)n2)CC(O)C1` (configuration not stated) | none | none | none |
| `Cc1ncsc1CN1CCN(C)C2(CCC(=O)N(CCO)CC2)C1` (configuration not stated) | none | none | none |
| `Cc1ccccc1OCC(O)Cn1c(C2CC(=O)N(c3ccccc3C)C2)nc2ccccc21` (configuration not stated) | - | none | none |
| `NCCn1cc(C(=O)NC2CCN(S(=O)(=O)c3ccccc3)CC2)nn1` | none | none | none |
| `CCOC(=O)C1=C(N)OC2=C(C(=O)CC(C)(C)C2)C1c1cc(C)cc(CN2CCOCC2)c1C` (configuration not stated) | none | none | none |
| `O=c1nc(O)c(Cl)cn1CC(O)CO` (configuration not stated) | none | none | none |
| `Cc1cc(Nc2ccccc2)n2ncc(-c3ccc(Cl)cc3)c2n1` | - | none | none |
| `C=C1CCC2[C@](C)(CO)C(O)CC[C@]2(C)C1CC=C1C(=O)OCC1O` (some centres not stated) | none | none | none |
| `Cc1c(C)n(CCO)c2ncnc(Nc3ccc(F)cc3)c12` | none | none | none |
| `CC(O)c1c(O)ccc2ccc(=O)oc12` (configuration not stated) | none | none | none |
| `O=C(NCC(O)c1ccccc1)c1nc(-c2ccc(C(F)(F)F)cc2)no1` (configuration not stated) | none | none | none |
| `CCCn1c(SCCO)nc2c1c(=O)[nH]c(=O)n2C` | none | none | none |
| `Cn1c(=O)c2c(nc(Oc3ccccc3)n2C)n(C)c1=O` | none | none | none |
| `CCS(=O)(=O)c1ccc(-c2cc(O)cc(CCC3CCCCN3)c2)s1` (configuration not stated) | none | none | none |
| `Nc1cc(C(=O)N2CCCC(CCc3ccccc3C(F)(F)F)C2)ccn1` (configuration not stated) | none | none | none |
| `CCOC(=O)c1cnc2c(C)cc(Cl)cc2c1NCC(C)O` (configuration not stated) | none | none | none |
| `Cc1ccc(C(C)CCN2CCN(CCOCCO)CC2)o1` (configuration not stated) | none | none | none |
| `CCOC(=O)c1cc2c(OC)c(OC)ccc2c2[nH]cc(C#N)c(=O)c12` | none | none | none |
| `NCCC1CN(c2cc(-c3ccccc3)nc3ccnn23)CCO1` (configuration not stated) | hit | none | none |
| `COCCn1ccnc1-c1c(-c2ccccc2)ncn1CCC1CCCCN1` (configuration not stated) | none | none | none |
| `COc1cccc(Nc2ccnc3ccc(Cl)cc23)c1` | none | none | none |
| `CCc1ccc(NC(=O)c2nnn(CC(=O)Nc3c(C)cc(C)cc3C)c2N)cc1` | none | none | none |
| `Cc1ccccc1-c1nnc(CSc2ccc(N)cc2)o1` | none | none | none |
| `Cc1cccnc1Nc1nc(-c2ccc(O)c(O)c2)cs1` | none | none | none |
| `COc1cc(-c2nnc(SCC#CCO)o2)cc(OC)c1OC` | - | none | none |
| `OC1CCN(CCNc2nccc(CCC(F)(F)F)n2)CC1` | none | none | none |
| `Nc1n[nH]cc1C(=O)O` | none | none | none |
| `COc1ccc(Nc2nc(N)nc(CSc3nc4cc(OC)ccc4s3)n2)cc1` | none | none | none |
| `CNc1ccnc(N2CCN(C(=O)Cn3ncnn3)CC(O)C2)n1` (configuration not stated) | none | none | none |

For reference, 2 entries once more:

SMILES,SAM-II,TPP,PreQ1
C=C1CCC2[C@](C)(CO)C(O)CC[C@]2(C)C1CC=C1C(=O)OCC1O (some centres not stated),none,none,none
Cc1cccnc1Nc1nc(-c2ccc(O)c(O)c2)cs1,none,none,none